Assay results: patent US7632830B2, “Lactam compounds and pharmaceutical use thereof” (Ajinomoto Co., Inc., priority 2000, dated 2009)
Some results were stated once for a whole list of compounds, not compound by compound.

test system: C57BL/KsJ-db/dbJcl mice; assay: Evaluation of hypoglycemic effect in db/db mice; format: in vivo; settings: 100 mg/kg given once orally; db/db mice after fasting for 20 hours; blood sampled up to 180 minutes

Row | SMILES | effect of lowering the blood sugar level as compared with control groups
1 | COC(=O)N1[C@@H]2CCCC[C@H]2NC2=C(C(=O)NC2)[C@H]1c1ccccc1OC [Example 80] | at least 30%
2 | CCOc1ccccc1[C@@H]1C2=C(CNC2=O)N[C@@H]2CCCC[C@H]2N1C(=O)CC [Example 88] | at least 30%
3 | CCOCC(=O)N1[C@@H]2CCCC[C@H]2NC2=C(C(=O)NC2)[C@H]1c1ccccc1C [Example 119] | at least 30%
4 | CCOCC(=O)N1[C@@H]2CCCC[C@H]2NC2=C(C(=O)NC2)[C@H]1c1ccccc1CC [Example 129] | at least 30%
5 | CCc1ccccc1[C@@H]1C2=C(CNC2=O)N[C@@H]2CCCC[C@H]2N1C(C)=O [Example 131] | at least 30%
6 | CCOCC(=O)N1[C@@H]2CCCC[C@H]2NC2=C(C(=O)NC2)[C@H]1c1ccccc1Br [Example 137] | at least 30%
7 | CC(=O)N1[C@@H]2CCCC[C@H]2NC2=C(C(=O)NC2)[C@H]1c1ccccc1Cl [Example 140] | at least 30%
8 | CCC(=O)N1[C@@H]2CCCC[C@H]2NC2=C(C(=O)NC2)[C@H]1c1ccccc1 [Example 154] | at least 30%
9 | CCOCC(=O)N1[C@@H]2CCCC[C@H]2NC2=C(C(=O)NC2)[C@H]1c1ccccc1 [Example 155] | at least 30%
10 | COC(=O)N1[C@@H]2CCCC[C@H]2NC2=C(C(=O)NC2)[C@H]1c1ccccc1 [Example 156] | at least 30%
